Source: US20150105349A1, “(R)-(-)-1,2-propanediol compositions and methods” (priority 2013, published 2015)
Some results were stated once for a whole list of compounds, not compound by compound.

What was measured:
[1] = test system: periorbital skin and skin above the cheekbone; assay: cosmetic wipe over periorbital skin and skin above the cheekbone, six female subjects; assay type: in vivo, human; details: 10 mg/mL in water (50%), 10% (S)-1,2-propanediol, 40% (R)-1,2-propanediol wt/wt; all subjects
Method: Six female subjects working at a cosmetics company volunteered to try topical applications of 1-7 and/or 1-8, formulated at 10 mg/mL in water (50%) and 10% (S)-1,2-propanediol, 40% (R)-1,2-propanediol wt/wt. The liquid was put on a cotton square and wiped over the periorbital skin and the skin above the cheekbone. All the subjects remarked on a refreshing coolness on the skin at the sites of application within 2 min after application. There was a “wow” effect, that was considered pleasant and stimulating. […] Four of the six subjects said they felt more “awake and energetic.”

[2] = test system: itch (contact dermatitis) on the scalp; assay: topical application to scalp itch (contact dermatitis after hair dye), one individual; assay type: in vivo, human; details: 5 mg/mL in 1% ethanol-99% (R)-1,2-propanediol; for time to suppression of itch sensations after application: cotton-tipped stick
Method: An individual developed intense itch (contact dermatitis) on the scalp at the base of the skull after use of hair dye. A cotton-tipped stick was used to apply CPS-410 or CPS-412, 5 mg/mL dissolved in a 1% ethanol-99% (R)-1,2-propanediol, to the site of itch. The itch sensations were suppressed within 5 min after application of either solution and this effect lasted for at least 8 hr. In a second experiment, the solutions were applied using a plastic bottle with a conical Yorker spout. This allowed more precise droplet delivery of the solution to the site of itch. […] The advantage of liquid formulation is the ease of uniform delivery to the inflamed site, a method not achievable with cream or ointment. Itch symptoms of hair and fur occur in seborrheic dermatitis, psoriasis, insect bites, canine pruritus, and allergic dermatitis. Liquid formulations containing (R)-1,2-propanediol and a cooling agent may be therapeutically valuable in these conditions.

SMILES | time to refreshing coolness on the skin after application [1] | duration of itch suppression [2] | time to suppression of itch sensations after application [2]
CCCCCCCP(=O)(C(C)C)C(C)C [1-7, 1-(Diisopropyl-phosphinoyl)-heptane] | ≤ 2 min |  | 
CCCCCCCCP(=O)(C(C)C)C(C)C [1-8] | ≤ 2 min |  | 
CCCOC(=O)[C@@H](C)NC(=O)[C@@H]1C[C@H](C)CC[C@H]1C(C)C [CPS-410, (R)-2-[((1R,2S,5R)-2-isopropyl-5-methyl-cyclohexanecarbonyl)-amino]-propionic acid n-propyl ester] |  | at least 8 hr | ≤ 5 min
CCCCOC(=O)[C@@H](C)NC(=O)[C@@H]1C[C@H](C)CC[C@H]1C(C)C [CPS-412, (R)-2-[((1R,2S,5R)-2-isopropyl-5-methyl-cyclohexanecarbonyl)-amino]-propionic acid n-butyl ester] |  | at least 8 hr | ≤ 5 min
